Data as given in patent US20220016257A1.
Results are given in words; binding and its absence hold for the method and conditions named. Some results given as binding are weak or reduced against the parent protein; the word gives no strength.

Legend:
[1] = biological target: T1, EC1-deleted human CDH6 (EC1 deletion mutant, on cells) (human) (UniProt P55285); test: flow cytometry, 293α cells transiently expressing EC1-deleted hCDH6 (open) against untransfected cells (shaded), APC anti-human IgG F(ab')2
T1 sequence: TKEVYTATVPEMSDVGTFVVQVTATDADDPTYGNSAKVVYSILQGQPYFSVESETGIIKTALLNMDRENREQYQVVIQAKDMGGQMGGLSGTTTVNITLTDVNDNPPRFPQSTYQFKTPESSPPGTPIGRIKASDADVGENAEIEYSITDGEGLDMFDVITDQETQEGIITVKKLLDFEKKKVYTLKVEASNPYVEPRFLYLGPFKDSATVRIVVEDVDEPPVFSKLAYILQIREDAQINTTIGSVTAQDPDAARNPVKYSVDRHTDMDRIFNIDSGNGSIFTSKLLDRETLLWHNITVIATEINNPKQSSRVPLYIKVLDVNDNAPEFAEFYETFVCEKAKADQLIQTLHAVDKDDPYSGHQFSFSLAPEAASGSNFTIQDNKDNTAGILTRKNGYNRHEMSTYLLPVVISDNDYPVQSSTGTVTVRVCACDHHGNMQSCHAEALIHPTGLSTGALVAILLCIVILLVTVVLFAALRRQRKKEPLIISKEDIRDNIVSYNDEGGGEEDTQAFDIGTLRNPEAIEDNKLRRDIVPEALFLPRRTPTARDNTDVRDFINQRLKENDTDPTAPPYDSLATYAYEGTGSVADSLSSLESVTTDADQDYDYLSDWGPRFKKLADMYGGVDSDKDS

[2] = biological target: T2, EC4-deleted human CDH6 (EC4 deletion mutant, on cells) (human) (UniProt P55285); test: flow cytometry, 293α cells transiently expressing EC4-deleted hCDH6 (open) against untransfected cells (shaded), APC anti-human IgG F(ab')2
T2 sequence: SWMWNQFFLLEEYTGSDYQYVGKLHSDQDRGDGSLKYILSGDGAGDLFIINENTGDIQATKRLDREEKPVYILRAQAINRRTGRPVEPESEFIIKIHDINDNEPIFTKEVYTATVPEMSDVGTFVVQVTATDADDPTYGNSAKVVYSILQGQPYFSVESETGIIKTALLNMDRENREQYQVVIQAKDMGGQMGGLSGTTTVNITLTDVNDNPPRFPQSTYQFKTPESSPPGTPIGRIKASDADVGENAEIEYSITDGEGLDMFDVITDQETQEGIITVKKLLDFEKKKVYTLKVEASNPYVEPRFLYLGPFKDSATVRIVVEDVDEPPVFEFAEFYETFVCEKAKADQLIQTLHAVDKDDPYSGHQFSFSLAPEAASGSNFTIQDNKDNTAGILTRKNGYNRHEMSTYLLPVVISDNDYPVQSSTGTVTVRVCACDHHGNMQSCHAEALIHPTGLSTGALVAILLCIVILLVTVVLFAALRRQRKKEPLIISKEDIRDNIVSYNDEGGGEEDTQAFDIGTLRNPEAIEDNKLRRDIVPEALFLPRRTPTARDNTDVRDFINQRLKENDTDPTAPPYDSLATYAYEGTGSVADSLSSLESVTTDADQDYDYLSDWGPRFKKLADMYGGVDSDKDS

[3] = biological target: T2, EC4-deleted human CDH6 (EC4 deletion mutant, on cells) (human); test: flow cytometry on transfected 293α cells
[4] = biological target: T3, EC5-deleted human CDH6 (EC5 deletion mutant, on cells) (human) (UniProt P55285); test: flow cytometry on transfected 293α cells
T3 sequence: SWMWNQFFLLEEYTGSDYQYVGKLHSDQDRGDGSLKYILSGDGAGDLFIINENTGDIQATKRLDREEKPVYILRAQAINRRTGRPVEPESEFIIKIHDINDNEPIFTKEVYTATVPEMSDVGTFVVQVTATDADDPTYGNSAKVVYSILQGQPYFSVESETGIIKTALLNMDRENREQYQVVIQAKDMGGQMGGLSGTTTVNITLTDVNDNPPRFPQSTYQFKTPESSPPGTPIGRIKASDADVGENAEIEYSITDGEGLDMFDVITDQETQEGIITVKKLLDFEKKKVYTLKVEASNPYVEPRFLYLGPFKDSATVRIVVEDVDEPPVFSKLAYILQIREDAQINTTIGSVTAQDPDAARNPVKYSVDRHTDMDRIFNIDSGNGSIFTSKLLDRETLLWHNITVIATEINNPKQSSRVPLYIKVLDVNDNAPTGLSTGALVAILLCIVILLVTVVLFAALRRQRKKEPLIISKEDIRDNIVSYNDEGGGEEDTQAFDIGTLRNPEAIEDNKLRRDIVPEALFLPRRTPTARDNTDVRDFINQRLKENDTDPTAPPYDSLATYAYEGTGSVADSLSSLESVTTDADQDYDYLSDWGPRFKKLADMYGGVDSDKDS

[5] = biological target: T1, EC1-deleted human CDH6 (EC1 deletion mutant, on cells) (human); test: flow cytometry on transfected 293α cells
[6] = biological target: T4, EC2-deleted human CDH6 (EC2 deletion mutant, on cells) (human) (UniProt P55285); test: flow cytometry on transfected 293α cells
T4 sequence: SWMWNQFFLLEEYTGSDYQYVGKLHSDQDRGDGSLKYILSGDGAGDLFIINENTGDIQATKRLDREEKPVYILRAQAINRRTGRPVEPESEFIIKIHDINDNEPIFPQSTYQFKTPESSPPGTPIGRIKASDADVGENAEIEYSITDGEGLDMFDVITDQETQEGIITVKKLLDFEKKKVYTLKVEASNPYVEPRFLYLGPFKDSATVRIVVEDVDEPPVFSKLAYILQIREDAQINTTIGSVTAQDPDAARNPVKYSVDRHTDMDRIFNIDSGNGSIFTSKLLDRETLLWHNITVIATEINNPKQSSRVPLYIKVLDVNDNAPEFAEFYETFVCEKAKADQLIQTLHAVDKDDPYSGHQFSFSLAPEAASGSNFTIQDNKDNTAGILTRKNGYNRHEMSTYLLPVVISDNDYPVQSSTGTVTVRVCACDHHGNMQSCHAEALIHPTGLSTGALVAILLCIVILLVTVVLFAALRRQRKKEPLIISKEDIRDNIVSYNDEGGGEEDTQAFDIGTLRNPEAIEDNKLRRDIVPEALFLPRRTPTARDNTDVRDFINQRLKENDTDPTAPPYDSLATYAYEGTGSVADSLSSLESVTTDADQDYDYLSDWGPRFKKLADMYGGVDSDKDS

[7] = biological target: T3, EC5-deleted human CDH6 (EC5 deletion mutant, on cells) (human); test: flow cytometry, 293α cells transiently expressing EC5-deleted hCDH6 (open) against untransfected cells (shaded), APC anti-human IgG F(ab')2
[8] = biological target: T4, EC2-deleted human CDH6 (EC2 deletion mutant, on cells) (human); test: flow cytometry, 293α cells transiently expressing EC2-deleted hCDH6 (open) against untransfected cells (shaded), APC anti-human IgG F(ab')2
[9] = biological target: T4, EC2-deleted human CDH6 (EC2 deletion mutant, on cells) (human); test: flow cytometry, 293α cells transiently expressing EC2-deleted hCDH6 (open) against untransfected cells (shaded), antibody 20 nM, anti-rat IgG-FITC [3]
[10] = biological target: T1, EC1-deleted human CDH6 (EC1 deletion mutant, on cells) (human); test: flow cytometry, 293α cells transiently expressing EC1-deleted hCDH6 (open) against untransfected cells (shaded), antibody 20 nM, anti-rat IgG-FITC [2]
[11] = biological target: T3, EC5-deleted human CDH6 (EC5 deletion mutant, on cells) (human); test: flow cytometry, 293α cells transiently expressing EC5-deleted hCDH6 (open) against untransfected cells (shaded), antibody 20 nM, anti-rat IgG-FITC [6]
[12] = biological target: T2, EC4-deleted human CDH6 (EC4 deletion mutant, on cells) (human); test: flow cytometry, 293α cells transiently expressing EC4-deleted hCDH6 (open) against untransfected cells (shaded), antibody 20 nM, anti-rat IgG-FITC [5]
[13] = biological target: T2, EC4-deleted human CDH6 (EC4 deletion mutant, on cells) (human); test: flow cytometry on transfected 293α cells, antibody 20 nM
[14] = biological target: T3, EC5-deleted human CDH6 (EC5 deletion mutant, on cells) (human); test: as above
[15] = biological target: T1, EC1-deleted human CDH6 (EC1 deletion mutant, on cells) (human); test: as above
[16] = biological target: T4, EC2-deleted human CDH6 (EC2 deletion mutant, on cells) (human); test: as above

Measured: binding

B1: humanized anti-CDH6 antibody H02L02 (antibody, human IgG1, kappa, V domains shown)
VH: EVQLVQSGAEVKKPGASVKVSCKASGYTFTRNFMHWVRQAPGQGLEWMGWIYPGDGETEYNQKFQGRVTITADRSTSTAYMELSSLRSEDTAVYFCARGVYGGFAGGYFDFWGQGTLVTVSS
VL: DIQMTQSPSSLSASVGDRVTITCKASQNIYKNLAWYQQKPGKAPKLLIYDANTLQTGVPSRFSGSGSGSDFTLTISSLQPEDFATYFCQQYYSGWAFGQGTKVEIKR
binds: [1] | [2] | [3] | [4] | [5] | [6] | [7] | [8]

B2: humanized anti-CDH6 antibody H04L02 (antibody, human IgG1, kappa, V domains shown)
VH: QVQLVQSGAEVKKPGASVKVSCKASGYTFTRNFMHWIRQAPGQGLEWMGWIYPGDGETEYAQKFQGRVTLTADRSTSTAYMELSSLRSEDTAVYYCARGVYGGFAGGYFDFWGQGTLVTVSS
VL: DIQMTQSPSSLSASVGDRVTITCKASQNIYKNLAWYQQKPGKAPKLLIYDANTLQTGVPSRFSGSGSGSDFTLTISSLQPEDFATYFCQQYYSGWAFGQGTKVEIKR
binds: [1] | [2] | [3] | [4] | [5] | [6] | [7] | [8]

B3: humanized anti-CDH6 antibody H02L03 (antibody, human IgG1, kappa, V domains shown)
VH: EVQLVQSGAEVKKPGASVKVSCKASGYTFTRNFMHWVRQAPGQGLEWMGWIYPGDGETEYNQKFQGRVTITADRSTSTAYMELSSLRSEDTAVYFCARGVYGGFAGGYFDFWGQGTLVTVSS
VL: DIQMTQSPSSLSASVGDRVTITCKASQNIYKNLAWYQQKLGEGPKLLIYDANTLQTGVPSRFSGSGSGTDFTLTISSLQPEDFATYYCQQYYSGWAFGQGTKVEIKR
binds: [1] | [2] | [3] | [4] | [5] | [6] | [7] | [8]

B4: rat anti-CDH6 monoclonal antibody rG019 (antibody, IgG2b, V domains shown)
VH: QVQLQQSGAELVKPGSSVKISCKASGYTFTRNFMHWIKQQPGNGLEWIGWIYCGDGETEYNQKFNGKATLTADRSSSTAYMELSRLTSEDSAVYFCARGVYGGFAGGYFDFWGQGVMVTVSS
VL: DIQMTQSPSLLSASVGDRVTLNCKASQNIYKNLAWYQQKLGEGPKLLIYDANTLQTGIPSRFSGSGSGSDFTLTISSLQPEDVATYFCQQYYSGWAFGGVTNLELKRA
binds: [9] | [10] | [11] | [12] | [13] | [14] | [15] | [16]
